# Assay results taken from PubChem BioAssay AID651640 (Broad Institute, 2012).
# Hit rate of the full screen: of about 350,000 compounds, about 6,000 (1.7%) were called active. The inconclusive results got no clear call from the source; some entries with a clear call stand among them for comparison. No stated cut-off is given here; in the data, active means CPE inhibition above about 20% (passing the limit was not always enough); inconclusive means no clear call, values can overlap the other calls; tested in BHK-21 cells.
# Assay: protection of cells from dengue 2 killing – plate reader, single concentration, primary screen (AID 651640);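 further: 0% = median of neutral control wells and 100% = median of positive control wells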
# Settings: DENV2-infected cells, cytopathic effect rescue, at 9.99 µM, active compounds read high
row,SMILES,CPE inhibition
1,CCOC(=O)C1=C(C)NC(C)=C(C(=O)OCC)C1c1ccccn1,inconclusive: 20.4%
2,CC(C)(C)CN1CCNC[C@H]1Cc1cccc2ccccc12,inactive: -2.78%
3,Cc1ccccc1N1CCN(C2CCCN(C(=O)c3ocnc3C)C2)CC1 (stereo unspecified),inconclusive: 50.1%
4,COc1cc(NC(=O)c2cc(C(C)C)on2)cc(OC)c1OC,inconclusive: 24.2%
5,CN(Cc1ccccc1)C(=O)c1nc[nH]c1C(=O)N1CCN(C(=O)OC(C)(C)C)CC1,active: 41.9%
6,COc1ccc(NC(=O)c2cc(-c3cc(Cl)ccc3C)n[nH]2)c(OC)c1,inconclusive: 57.1%
7,Cc1nc(Cc2nnc(SCC(=O)N3CC(=O)Nc4ccccc43)o2)cs1,inactive: -1.99%
8,COC(=O)[C@]1(Cc2ccccc2)N[C@H](CN(C)S(=O)(=O)c2ccc(C)cc2)[C@@H]2C(=O)N(Cc3ccccc3)C(=O)[C@@H]21,active: 24.2%
9,N#C[C@@H]1[C@@H](c2ccccc2-c2ccccc2)[C@H](CO)N1C(=O)NC1CCCCC1,inactive: -0.122%
10,COc1ccc(CNC(=S)Nc2ccc3nc(N4CCN(C)CC4)cc(C)c3c2)cc1,inactive: 6.13%
11,CCN(CC)c1ccc(N=Cc2cc(Br)ccc2O)cc1,inactive: -2.63%
12,O=C(Cc1ccccc1)N[C@H]1CC[C@@H](CC(=O)N2CCOCC2)O[C@H]1CO,inconclusive: 25.8%
13,CC(C)(C)OC(=O)C[C@H]1C/C=C\C[C@@H](CC(=O)NCCO)C(=O)N2CCC[C@H]2COC1=O,inactive: -4.11%
14,C[C@@H]1CCCCO[C@H](CN(C)S(=O)(=O)c2ccc(F)cc2)[C@@H](C)CN([C@H](C)CO)C(=O)c2cc(NS(=O)(=O)c3cn(C)cn3)ccc2O1,active: 22.9%
15,CC(C)NC(=O)Nc1ccc2c(c1)C(=O)N([C@@H](C)CO)C[C@@H](C)[C@H](CN(C)Cc1ccc(C(F)(F)F)cc1)OCCCC[C@H](C)O2,inconclusive: 21.2%
16,CCN(CC)C(=O)Cn1cc(C(=O)C(=O)N2CCN(C)CC2)c2ccccc21,inconclusive: 36.3%
17,O=C(O)COCC(=O)NC1CCN(Cc2ccccc2)CC1,inconclusive: 33.5%
18,CN1[C@@H]2Cn3c(ccc(-c4cccc(F)c4)c3=O)[C@H]1[C@@H](C(=O)NCc1ccccc1)[C@@H]2CO,inactive: -6.63%
19,COc1cccc(-c2nc(NCc3ccccc3)c3ccccc3n2)c1O,inconclusive: 39.3%
20,Cc1ccc(S(=O)(=O)N2[C@@H](c3cccc(C)c3)C(C(=O)O)=C[C@H]2CC2CCCC2)cc1,inconclusive: 25.5%
21,C[C@@H]1CN([C@@H](C)CO)C(=O)c2cc(NC(=O)C3CCCCC3)ccc2O[C@@H](C)CCCCO[C@@H]1CN(C)C(=O)C1CCCCC1,inconclusive: 72.6%
22,COc1ccc(S(=O)(=O)Nc2ccc3c(c2)CC(=O)N([C@@H](C)CO)C[C@H](C)[C@@H](CN(C)CC2CCCCC2)O3)cc1,inconclusive: 41.1%
23,OCCNc1nc(Nc2cc(Cl)ccc2OC2CCCC2)nc(N2CCCC2)n1,inconclusive: 28.3%
24,Cc1ccc(CN2CCC[C@]3(N[C@H](c4ccc(C(F)(F)F)cc4)[C@@H]4C(=O)N(Cc5ccccc5)C(=O)[C@@H]43)C2=O)cc1,inconclusive: 37%

row,SMILES,CPE inhibition
1,Cc1noc(C)c1NC(=O)Nc1ccc2c(c1)CC(=O)N([C@@H](C)CO)C[C@H](C)[C@@H](CN(C)Cc1ccc(-c3ccccc3)cc1)O2,inactive: 0.924%
2,COc1cc(OC)c(S(=O)(=O)N2CCOCC2)cc1S(=O)(=O)N1CCOCC1,inconclusive: 67.3%
3,CC1(c2ccc3c(c2)OCO3)NC(=O)N(CC(=O)Nc2ccccc2)C1=O (stereo unspecified),inactive: -2.66%
4,CCOC(=O)NC1CCc2cc(OC)c(OC)c(OC)c2-c2ccc(SC)c(=O)cc21 (stereo unspecified),inconclusive: 22%
5,COc1ccc(S(=O)(=O)N(C)C[C@H]2OCCCC[C@@H](C)Oc3ccc(NC(=O)NC(C)C)cc3C(=O)N([C@@H](C)CO)C[C@@H]2C)cc1,inactive: 4.49%
6,Cc1ccc(S(=O)(=O)Nc2cccc3c2O[C@@H](CN(C)S(=O)(=O)c2ccc(F)cc2)[C@@H](C)CN([C@H](C)CO)C3=O)cc1,inactive: 11%
7,O=C(C[C@H]1CC[C@H]2[C@@H](COC[C@@H](O)CN2C(=O)c2ccc3c(c2)OCO3)O1)NC1Cc2ccccc2C1,active: 32.6%
8,CCCCN1C(=O)C(O)=C(C(C)=O)C1c1ccccc1[N+](=O)[O-] (stereo unspecified),inactive: -8.79%
9,CCCc1nc2ccc(C(=O)OC)cn2c1Cc1ccccc1OC,inactive: 0.398%
10,CCN(CC)C(=O)c1ccc(C(=O)Nc2ccc(F)cc2)cc1,inconclusive: 36.3%
11,COc1ccc2c3c(n(C)c2c1)[C@H](CO)N(C(=O)C1CCCC1)CC31CCN(C(=O)Nc2cccc(F)c2)CC1,active: 27.5%
12,COc1ccc(/C=N/NC(=O)c2ccccc2OC)cc1COc1ccccc1[N+](=O)[O-],inconclusive: 23.8%
13,COc1ccc(N2CCN(C(=O)COC(=O)CNC(=O)c3ccc(Cl)cc3Cl)CC2)cc1,inconclusive: 38%
14,O=C(Cn1ccc(C(F)(F)F)n1)N/N=C/c1ccc(N2CCOCC2)cc1,inconclusive: 46.9%
15,CCCC(=O)Nc1ccc2c(c1)OC[C@H](C)N(C(=O)CN(C)C)C[C@@H](C)[C@@H](OC)CN(C)C2=O,inconclusive: 29.4%
16,CC(C)(C)c1ccc(C(=O)Nc2ccc3c(c2)C(=O)NC3=O)cc1,active: 58.1%
17,C[C@@H]1CN([C@H](C)CO)C(=O)Cc2cc(NC(=O)Nc3cccc4ccccc34)ccc2O[C@@H]1CN(C)C(=O)Nc1ccc(C(F)(F)F)cc1,inconclusive: 22.2%
18,CCCCC(CC)CNC(=O)C(=O)C1C(=O)Nc2ccccc21 (stereo unspecified),inconclusive: 29.5%
19,Cc1ccc(S(=O)(=O)N2[C@@H]3CNC[C@H]2C3c2ccc(-c3ccc(C#N)cc3)cc2)cc1 (stereo partly specified),active: 29.1%
20,COc1ccc(NC(=O)N(C)C[C@H]2Oc3c(NC(=O)Nc4ccc5c(c4)OCO5)cccc3C(=O)N([C@H](C)CO)C[C@@H]2C)cc1,inconclusive: 36.2%
21,Cn1c(N)c(C(=O)COC(=O)Cc2ccc(Cl)c(Cl)c2)c(=O)n(C)c1=O,active: 57.1%
22,CO[C@@H]1CN(C)C(=O)c2cc(NS(=O)(=O)c3ccc(Oc4ccccc4)cc3)ccc2OC[C@@H](C)NC[C@@H]1C,inconclusive: 22.4%
23,COC(=O)CCN(C(=O)c1ccc([N+](=O)[O-])cc1)c1ccccn1,inconclusive: 53.6%
24,CC(=O)N1c2ccc(S(=O)(=O)NCCC(=O)NC3CCC(C)CC3)cc2CC1C (stereo unspecified),inactive: -4.84%

# Looked up one by one from the entries so far (5):
row,SMILES,CPE inhibition
10,CCN(CC)C(=O)c1ccc(C(=O)Nc2ccc(F)cc2)cc1,inconclusive: 36.3%
7,O=C(C[C@H]1CC[C@H]2[C@@H](COC[C@@H](O)CN2C(=O)c2ccc3c(c2)OCO3)O1)NC1Cc2ccccc2C1,active: 32.6%
12,COc1ccc(/C=N/NC(=O)c2ccccc2OC)cc1COc1ccccc1[N+](=O)[O-],inconclusive: 23.8%
16,CC(C)(C)c1ccc(C(=O)Nc2ccc3c(c2)C(=O)NC3=O)cc1,active: 58.1%
4,CCOC(=O)NC1CCc2cc(OC)c(OC)c(OC)c2-c2ccc(SC)c(=O)cc21 (stereo unspecified),inconclusive: 22%

# The list goes on.

row,SMILES,CPE inhibition
1,Cc1cccc(N2CN(Cc3cccnc3)CNC2=S)c1,inconclusive: 52.8%
2,CC(C)(C)S(=O)(=O)N1Cc2cc(CO)ccc2[C@H]1CCO,inconclusive: 87.2%
3,COCC(=O)N1CC2(C1)CN(Cc1cccc(OC)c1)[C@@H](CO)c1[nH]c3cc(OC)ccc3c12,inconclusive: 66.6%
4,Cc1cccc([C@@H]2[C@@H]3C(=O)N(C)C(=O)[C@@H]3[C@@H]3C(=O)Nc4ccccc4C(=O)N23)c1,active: 30.1%
5,CC(C)NC(=O)Nc1ccc2c(c1)C(=O)N(C)[C@H]1CC[C@H](CC(=O)Nc3ccccc3)O[C@H]1CO2,inconclusive: 26.9%
6,O=c1ccn([C@@H]2O[C@H](CNCc3ccc(-n4cccn4)cc3)[C@@H](O)[C@H]2O)c(=O)[nH]1,inconclusive: 20.3%
7,O=C(O)C[C@H]1C=C[C@@H](NC(=O)Nc2cc(F)ccc2F)[C@H](CO)O1,inconclusive: 52.8%
8,CC(C)CN(C(=O)CN(C)C(=O)Cc1c(F)cccc1Cl)c1c(N)n(CC(C)C)c(=O)[nH]c1=O,inconclusive: 28%
9,Cc1ccc(Sc2c([N+](=O)[O-])c(=O)n(C)c3ccccc23)cc1,inactive: 8.55%
10,C[C@H]1CN([C@@H](C)CO)C(=O)Cc2cc(NC(=O)c3ccncc3)ccc2O[C@H]1CN(C)CC1CCCCC1,inactive: -10.2%
11,CC(C)(C)c1cc2nc(NCCc3ccc(S(N)(=O)=O)cc3)ccn2n1,inconclusive: 39.1%
12,CCN(CC(=O)NCc1ccc(Cl)cc1)C(=O)c1oc2ccccc2c1C,inconclusive: 27.9%
13,O=C(c1ccccc1)N1CC[C@@H]2[C@H](CO)Nc3ccc(C#Cc4ccccc4F)cc3[C@@H]21,inactive: 6.98%
14,CC(C)N(C(=O)[C@H]1C[C@H](CC(=O)NCCCN(C)C)C(=O)N2CCc3c([nH]c4ccc(Cl)cc34)[C@]12C)C(C)C,inconclusive: 21.6%
15,CC(C)(C)c1cc(C(=O)NNc2ccc(OC(F)(F)F)cc2)n(Cc2ccccc2)n1,inconclusive: 29.3%
16,Cc1coc2c1C(=O)C(=O)c1c-2ccc2c1CCCC2(C)C,inconclusive: 73.4%
17,COCCNC(=O)C1(C)CCCN(C(=O)c2ccc(C(F)(F)F)cc2)C1 (stereo unspecified),active: 50.1%
18,O=C(O)COc1ccccc1/C=N/NC(=O)c1cccc(S(=O)(=O)Nc2cccc(Cl)c2)c1,inactive: 1.15%
19,CSc1nc(N)nc2c1ncn2CC(=O)NCc1ccc2c(c1)OCO2,inactive: -15.1%
20,COCCNC(=O)c1cccc(OC2CCN(C(C)COc3ccccc3)CC2)c1 (stereo unspecified),inconclusive: 20.1%
21,CC(=O)N1CCCCN2[C@H](CO)[C@@H](c3ccc(-c4ccc(C)cc4)cc3)[C@H]2C1,inactive: -4.09%
22,CC(C)NC(=O)N(C)C[C@@H]1Oc2ccc(NS(=O)(=O)c3cccs3)cc2CC(=O)N([C@@H](C)CO)C[C@@H]1C,active: 21.6%
23,O=C(NC(c1ccc(-c2ccccc2)cc1)c1cnccn1)C1CCN(Cc2ccc(Cl)c(Cl)c2)CC1 (stereo unspecified),inactive: -2.88%
